# Measured values as given in US9370511B2, “Morphinan-derivatives for treating diabetes and related disorders” (priority 2011, dated 2016).
# Entries after “also recorded” stand apart in the source; their conditions may differ. At least one structure is not confirmed: it was looked up by name or label, or the drawing left a doubt.
# Experiments:
# human pancreatic islets = test: Insulin secretion from human pancreatic islets at low and high glucose; assay type: cell-based; conditions: 1 μM; low glucose 2 mM vs high glucose 20 mM
# Experimental: (§1) Mouse pancreatic islets were treated with a low, non-stimulatory glucose concentration (2.5 mM) or a high, stimulatory glucose concentration (25 mM) in the absence or presence of 1 μM or 10 μM dextrorphan. Insulin secretion was determined as percent of […] glucose control, and values are expressed as means+/−SD (N=3). The asterisks (*) indicate p values smaller than 0.05 in Student's t-tests.
# Example 1 was repeated but the mouse pancreatic islets were replaced by human pancreatic islets.
# Low Glucose (2 mM); High Glucose (20 mM); the asterisks (*) indicate p values smaller than 0.05 in Student's t-tests.
# mouse pancreatic islets = test: Insulin secretion from mouse pancreatic islets at low and high glucose; assay type: cell-based; conditions: for glucose-dependent insulin secretion, compared with levorphanol: mouse islets, comparison of DXO, DXM and LEV
# Experimental: as §1
# Low Glucose (2.5 mM); High Glucose (25 mM); p<0.05 (Student's t-Test), N=3.
# Example 1 was repeated in order to compare dextrorphan, dextromethorphan, and levorphanol with one another.
# [1] = test system: non-diabetic C57BL/6 mice; test: Glucose tolerance test in healthy C57BL/6 mice; assay type: in vivo, mouse; conditions: 40 μg per g body weight i.p. together with glucose 2 mg per g
# [2] = test system: mouse pancreatic islets harboring a heterozygous deletion of the NMDA receptor-1; test: Insulin secretion from control islets with heterozygous NR1 deletion (Pdx1-Cre×NR1 IoxP/wt); assay type: cell-based; conditions: 10 μM, high glucose 20 mM
# diabetic db/db mice = test: Glucose tolerance test in type 2 diabetic db/db mice; assay type: in vivo, mouse; conditions: 50 μg per g body weight i.p. together with glucose 1 mg per g
# [3] = test system: mouse pancreatic islets deficient for NMDA receptors; test: Insulin secretion from NR1-deficient islets (Pdx1-Cre×NR1 IoxP/IoxP); assay type: cell-based; conditions: 10 μM, high glucose 20 mM, listed as DXO
structure (smiles),measurement,setting,value
"CN1CC[C@@]23CCCC[C@@H]2[C@@H]1Cc1ccc(O)cc13 [dextrorphan, (+)-17-methyl-9a,13a,14a-morphinan-3-ol]","insulin secretion, basal and glucose-stimulated",human pancreatic islets,"selectively increases glucose stimulated insulin secretion rather than basal insulin secretion; also recorded: only increases insulin secretion from human pancreatic islets at a high glucose concentration, but not at a low glucose concentration"
same,insulin secretion,"mouse pancreatic islets; 1 μM or 10 μM, low glucose 2.5 mM vs high glucose 25 mM",selectively increased at a high rather than low glucose concentration
same,"glucose-dependent insulin secretion, compared with levorphanol",mouse pancreatic islets,significantly more effective in inducing glucose-dependent insulin secretion than levorphanol
same,"glucose-dependent insulin secretion, compared with levorphanol",mouse pancreatic islets; listed as DXO,increase glucose-dependent insulin secretion from pancreatic islets to a significantly larger extent compared to LEV
same,glucose tolerance (blood glucose levels),[1],significantly improved glucose tolerance
same,glucose-dependent insulin secretion,[2],increases glucose-dependent insulin secretion by targeting NMDA receptors on pancreatic islets; also recorded: increases glucose-dependent insulin secretion from pancreatic islets by targeting NMDA receptors
same,glucose tolerance (blood glucose levels),diabetic db/db mice,significantly improved glucose tolerance
same,glucose-dependent insulin secretion,[3],does not further increase glucose-dependent insulin secretion; also recorded: cannot increase glucose-dependent insulin secretion
